Results as given in doi:10.1101/2025.02.25.640159.
These are yes or no findings as the source states them, for the method shown. In cells and extracts the contact can be indirect. Some entries that bind do so weakly or less than the wild type.

Amino acid sequences for entries named in this document (tags omitted).
UniProt O24456: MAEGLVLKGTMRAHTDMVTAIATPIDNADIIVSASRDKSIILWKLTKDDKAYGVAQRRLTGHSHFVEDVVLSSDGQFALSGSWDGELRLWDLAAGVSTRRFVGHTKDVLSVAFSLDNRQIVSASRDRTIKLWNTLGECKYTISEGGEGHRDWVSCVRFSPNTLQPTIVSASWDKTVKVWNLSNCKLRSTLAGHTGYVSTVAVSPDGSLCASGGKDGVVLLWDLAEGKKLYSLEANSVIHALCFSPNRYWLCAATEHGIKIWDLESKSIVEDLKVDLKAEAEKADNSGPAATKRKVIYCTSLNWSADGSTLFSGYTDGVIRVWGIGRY

Target: YFPn-RACK1A (Arabidopsis thaliana) (UniProt O24456)
Experiment: split reporter

| Binder | binding |
| --- | --- |
| NUDT7-YFPc (NUDIX HYDROLASE 7) (enzyme, UniProt Q9SU14 1-282) MGTRAQQIPLLEGETDNYDGVTVTMVEPMDSEVFTESLRASLSHWREEGKKGIWIKLPLGLANLVEAAVSEGFRYHHAEPEYLMLVSWISETPDTIPANASHVVGAGALVINKNTKEVLVVQERSGFFKDKNVWKLPTGVINEGEDIWTGVAREVEEETGIIADFVEVLAFRQSHKAILKKKTDMFFLCVLSPRSYDITEQKSEILQAKWMPIQEYVDQPWNKKNEMFKFMANICQKKCEEEYLGFAIVPTTTSSGKESFIYCNADHAKRLKVSRDQASASL | binds |
| YFPc-GPA1 (GUANINE NUCLEOTIDE-BINDING PROTEIN ALPHA-1 SUBUNIT) (protein, UniProt P18064 1-383) MGLLCSRSRHHTEDTDENTQAAEIERRIEQEAKAEKHIRKLLLLGAGESGKSTIFKQIKLLFQTGFDEGELKSYVPVIHANVYQTIKLLHDGTKEFAQNETDSAKYMLSSESIAIGEKLSEIGGRLDYPRLTKDIAEGIETLWKDPAIQETCARGNELQVPDCTKYLMENLKRLSDINYIPTKEDVLYARVRTTGVVEIQFSPVGENKKSGEVYRLFDVGGQRNERRKWIHLFEGVTAVIFCAAISEYDQTLFEDEQKNRMMETKELFDWVLKQPCFEKTSFMLFLNKFDIFEKKVLDVPLNVCEWFRDYQPVSSGKQEIEHAYEFVKKKFEELYYQNTAPDRVDRVFKIYRTTALDQKLVKKTFKLVDETLRRRNLLEAGLL | no binding |
